Patent US10602680B2, “Method of internal seed disinfection by combining seed priming with vacuum infiltration” (priority 2014, dated 2020)
For at least one compound, name, drawing or mass did not settle the structure.

What was measured:
[1] = system: Acidovorax avenae subsp. citrulli; assay: Matrix priming of internally infected triploid watermelon seeds with antibiotic solution; type: in vivo; details: 500 ppm, triploid watermelon seeds matrix primed with the solution for 6 days
[2] = system: Acidovorax avenae subsp. citrulli; assay: 10 minute soak of externally infected diploid watermelon seeds in antibiotic solutions; type: in vivo
Procedure: The effectiveness of using an antibiotic solution combined with matrix priming for disinfecting triploid watermelon seeds internally infected with Acidovorax avenae subsp. citrulli has been tested. In order to screen for effective antibiotics, diploid watermelon seeds were obtained which were externally infected with Acidovorax avenae subsp. citrulli. […] Infected seeds were soaked for 10 minutes in antibiotic solutions of 100 ppm, 250 ppm, and 500 ppm of the above antibiotics. Dosage was chosen based on information reported by Layne Wade (21st Annual Tomato Disease Workshop, Asheville, N.C., November 2006) which stated that the MIC (minimum inhibitory concentration) of Kasugamycin on Acidovorax avenae subsp. citrulli is greater than 100 ppm.

CN(C)[C@@H]1C(O)=C(C(N)=O)C(=O)[C@@]2(O)C(O)=C3C(=O)c4c(O)cccc4[C@@](C)(O)[C@H]3[C@H](O)[C@@H]12 [Oxytetracycline] was tested, and the “elimination of bacteria in the seeds” value [1] was “not eliminated”, the “elimination of bacteria on seeds” value ([2]; 250 ppm) was “effective” and the “elimination of bacteria on seeds” value ([2]; 500 ppm) was “effective”.
